According to the supplement of paper PMC8728848:
Some of the results follow.

Columns and labels:
Test in all cases: glycan array binding signal (z-score within array); higher = stronger binding
Settings in all cases: glycan notation: IUPAC condensed, linker removed
[1] = target: Fuc(a1-2)[Gal(a1-3)]Gal(b1-4)GlcNAc(b1-2)Man(a1-3)[Fuc(a1-2)[Gal(a1-3)]Gal(b1-4)GlcNAc(b1-2)Man(a1-6)]Man(b1-4)GlcNAc(b1-4)[Fuc(a1-6)]GlcNAc
Procedure, shortened: (§1)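 Negative Z-scores can be read as non-binding. The Z-score is calculated within each array and then averaged across arrays of one protein sequence at different concentrations or buffers and across linkers. Arrays, 3228 in all, were curated from the Consortium for Functional Glycomics database and kept only where the protein sequence was available.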

[2] = target: Fuc(a1-2)[Gal(a1-3)]Gal(b1-4)GlcNAc(b1-3)GalNAc
Procedure, shortened: as §1

[3] = target: Fuc(a1-2)[Gal(a1-3)]Gal(b1-4)GlcNAc(b1-6)GalNAc
Procedure, shortened: as §1

[4] = target: Fuc(a1-2)[Gal(a1-3)]Gal(b1-4)[Fuc(a1-3)]Glc
Procedure, shortened: as §1

[5] = target: Fuc(a1-2)[Gal(a1-3)]Gal(b1-4)[Fuc(a1-3)]GlcNAc
Procedure, shortened: as §1

[6] = target: Fuc(a1-2)[Gal(a1-3)]Gal(b1-4)[Fuc(a1-3)]GlcNAc(b1-3)GalNAc
Procedure, shortened: as §1

[7] = target: Fuc(a1-2)[Gal(a1-4)]Gal(b1-4)GlcNAc
Procedure, shortened: as §1

[8] = target: Fuc(a1-2)[GalNAc(a1-3)]Gal
Procedure, shortened: as §1

[9] = target: Fuc(a1-2)[GalNAc(a1-3)]Gal(b1-3)GalNAc(a1-3)[Fuc(a1-2)]Gal(b1-4)GlcNAc
Procedure, shortened: as §1

[10] = target: Fuc(a1-2)[GalNAc(a1-3)]Gal(b1-3)GalNAc(b1-3)Gal(a1-4)Gal(b1-4)Glc
Procedure, shortened: as §1

[11] = target: Fuc(a1-2)[GalNAc(a1-3)]Gal(b1-3)GlcNAc
Procedure, shortened: as §1

[12] = target: Fuc(a1-2)[GalNAc(a1-3)]Gal(b1-3)GlcNAc(b1-2)Man(a1-3)[Fuc(a1-2)[GalNAc(a1-3)]Gal(b1-3)GlcNAc(b1-2)Man(a1-6)]Man(b1-4)GlcNAc(b1-4)GlcNAc
Procedure, shortened: as §1

[13] = target: Fuc(a1-2)[GalNAc(a1-3)]Gal(b1-3)GlcNAc(b1-2)Man(a1-3)[Fuc(a1-2)[GalNAc(a1-3)]Gal(b1-3)GlcNAc(b1-2)Man(a1-6)]Man(b1-4)GlcNAc(b1-4)[Fuc(a1-6)]GlcNAc
Procedure, shortened: as §1

[14] = target: Fuc(a1-2)[GalNAc(a1-3)]Gal(b1-3)GlcNAc(b1-3)GalNAc
Procedure, shortened: as §1

[15] = target: Fuc(a1-2)[GalNAc(a1-3)]Gal(b1-3)GlcNAc(b1-6)GalNAc
Procedure, shortened: as §1

[16] = target: Fuc(a1-2)[GalNAc(a1-3)]Gal(b1-4)Glc
Procedure, shortened: as §1

[17] = target: Fuc(a1-2)[GalNAc(a1-3)]Gal(b1-4)GlcNAc
Procedure, shortened: as §1

[18] = target: Fuc(a1-2)[GalNAc(a1-3)]Gal(b1-4)GlcNAc(b1-2)Man
Procedure, shortened: as §1

[19] = target: Fuc(a1-2)[GalNAc(a1-3)]Gal(b1-4)GlcNAc(b1-2)Man(a1-3)[Fuc(a1-2)[GalNAc(a1-3)]Gal(b1-4)GlcNAc(b1-2)Man(a1-6)]Man(b1-4)GlcNAc(b1-4)GlcNAc
Procedure, shortened: as §1

[20] = target: Fuc(a1-2)[GalNAc(a1-3)]Gal(b1-4)GlcNAc(b1-2)Man(a1-3)[Fuc(a1-2)[GalNAc(a1-3)]Gal(b1-4)GlcNAc(b1-2)Man(a1-6)]Man(b1-4)GlcNAc(b1-4)[Fuc(a1-6)]GlcNAc
Procedure, shortened: as §1

[21] = target: Fuc(a1-2)[GalNAc(a1-3)]Gal(b1-4)GlcNAc(b1-3)Gal(b1-4)GlcNAc
Procedure, shortened: as §1

[22] = target: Fuc(a1-2)[GalNAc(a1-3)]Gal(b1-4)GlcNAc(b1-3)Gal(b1-4)GlcNAc(b1-3)Gal(b1-4)GlcNAc
Procedure, shortened: as §1

[23] = target: Fuc(a1-2)[GalNAc(a1-3)]Gal(b1-4)GlcNAc(b1-3)GalNAc
Procedure, shortened: as §1

[24] = target: Fuc(a1-2)[GalNAc(a1-3)]Gal(b1-4)GlcNAc(b1-3)[Fuc(a1-2)[GalNAc(a1-3)]Gal(b1-4)GlcNAc(b1-6)]GalNAc
Procedure, shortened: as §1

[25] = target: Fuc(a1-2)[GalNAc(a1-3)]Gal(b1-4)GlcNAc(b1-6)GalNAc
Procedure, shortened: as §1

[26] = target: Fuc(a1-2)[GalNAc(a1-3)]Gal(b1-4)[Fuc(a1-3)]GlcNAc
Procedure, shortened: as §1

[27] = target: Fuc(a1-2)[GalNAc(a1-3)]Gal(b1-4)[Fuc(a1-3)]GlcNAc(b1-3)GalNAc
Procedure, shortened: as §1

[28] = target: Fuc(a1-2)[GalNAc(a1-4)]Gal(b1-4)GlcNAc
Procedure, shortened: as §1

[29] = target: Fuc(a1-2)[GalNAc(b1-3)]Gal
Procedure, shortened: as §1

Fuc(a1-3)GlcNAc = target: Fuc(a1-3)GlcNAc
Procedure, shortened: as §1

B1: GroEL (Clostridium difficile), Q18CT5 (protein)
chain: MAKEIKFSEETRRALEAGVNKLADTVKVTLGPKGRNVILDKKFGSPLITNDGVTIAKEIELEDRFENMGAQLVKEVATKTNDVAGDGTTTATVLAQAIIREGLKNVTAGANPILLRKGIQKAVTVAVEELKNQSRIVETQEAISQVASISAGDEEVGKLIAEAMEIVGKDGVITVEESQTMNTELDAVEGMQFDRGFVSAYMVTDVDKMEAVLNDPYILITDKKISNIQELLPVLEQIVQQGKKLLIIAEDVEGEALSTLVVNKLRGTFDVVAVKAPGFGDRRKEMLQDIAILTGAQVISEELGYDLKEADLSMLGRASSVKVTKESTTIVDGSGDKKAIEDRVTQIKHQVEQTTSDFDREKLMERLAKLAGGVAVVKVGAATEVELKERKLRIEDALNATRAAVEEGIVAGGGTAFVSVIPAIGTLIESLEGEVKLGAQIVKKALEEPLRQIAINAGLEGAVIVQNVVNSEAETGFDALNEKYVNMIEAGIVDPTKVSRSALQNAASIASTFLTTEAAVADLPEKEDAGMPGMGGGMPGMM
With B1 the “glycan array binding signal (z-score)” value [1] was 1.21, the “glycan array binding signal (z-score)” value [2] was -1.04 and the “glycan array binding signal (z-score)” value [3] was -0.714. The “glycan array binding signal (z-score)” value [4] was 1.5, the “glycan array binding signal (z-score)” value [5] was 0.041 and the “glycan array binding signal (z-score)” value [6] was -0.138. The “glycan array binding signal (z-score)” value [7] was -0.022, the “glycan array binding signal (z-score)” value [8] was -0.259 and the “glycan array binding signal (z-score)” value [9] was -0.987. For the same binder, the “glycan array binding signal (z-score)” value [10] was -0.088, the “glycan array binding signal (z-score)” value [11] was -0.462 and the “glycan array binding signal (z-score)” value [12] was -0.336. For the same binder, the “glycan array binding signal (z-score)” value [13] was 0.141, the “glycan array binding signal (z-score)” value [14] was 1.81 and the “glycan array binding signal (z-score)” value [15] was -0.924. The “glycan array binding signal (z-score)” value [16] was 0.487, the “glycan array binding signal (z-score)” value [17] was 1.44 and the “glycan array binding signal (z-score)” value [18] was -0.069. For the same binder, the “glycan array binding signal (z-score)” value [19] was -0.978, the “glycan array binding signal (z-score)” value [20] was -0.638 and the “glycan array binding signal (z-score)” value [21] was -0.401. For the same binder, the “glycan array binding signal (z-score)” value [22] was 0.136, the “glycan array binding signal (z-score)” value [23] was 0.923 and the “glycan array binding signal (z-score)” value [24] was -1.51. The “glycan array binding signal (z-score)” value [25] was -1.27, the “glycan array binding signal (z-score)” value [26] was -0.924 and the “glycan array binding signal (z-score)” value [27] was -0.583. The “glycan array binding signal (z-score)” value [28] was -0.396, the “glycan array binding signal (z-score)” value [29] was -0.641 and the “glycan array binding signal (z-score)” value (Fuc(a1-3)GlcNAc) was 0.107.
